{
  "source": "paper PMC12373733",
  "binders": {"B1": {"name": "Lipin1 (protein, UniProt Q14693 1-890)", "chain": "MNYVGQLAGQVFVTVKELYKGLNPATLSGCIDIIVIRQPNGNLQCSPFHVRFGKMGVLRSREKVVDIEINGESVDLHMKLGDNGEAFFVQETDNDQEVIPMHLATSPILSEGASRMECQLKRGSVDRMRGLDPSTPAQVIAPSETPSSSSVVKKRRKRRRKSQLDSLKRDDNMNTSEDEDMFPIEMSSDEAMELLESSRTLPNDIPPFQDDIPEENLSLAVIYPQSASYPNSDREWSPTPSPSGSRPSTPKSDSELVSKSTERTGQKNPEMLWLWGELPQAAKSSSPHKMKESSPLSSRKICDKSHFQAIHSESSDTFSDQSPTLVGGALLDQNKPQTEMQFVNEEDLETLGAAAPLLPMIEELKPPSASVVQTANKTDSPSRKRDKRSRHLGADGVYLDDLTDMDPEVAALYFPKNGDPSGLAKHASDNGARSANQSPQSVGSSGVDSGVESTSDGLRDLPSIAISLCGGLSDHREITKDAFLEQAVSYQQFVDNPAIIDDPNLVVKIGSKYYNWTTAAPLLLAMQAFQKPLPKATVESIMRDKMPKKGGRWWFSWRGRNTTIKEESKPEQCLAGKAHSTGEQPPQLSLATRVKHESSSSDEERAAAKPSNAGHLPLLPNVSYKKTLRLTSEQLKSLKLKNGPNDVVFSVTTQYQGTCRCEGTIYLWNWDDKVIISDIDGTITRSDTLGHILPTLGKDWTHQGIAKLYHKVSQNGYKFLYCSARAIGMADMTRGYLHWVNERGTVLPQGPLLLSPSSLFSALHREVIEKKPEKFKVQCLTDIKNLFFPNTEPFYAAFGNRPADVYSYKQVGVSLNRIFTVNPKGELVQEHAKTNISSYVRLCEVVDHVFPLLKRSHSSDFPCSDTFSNFTFWREPLPPFENQDIHSASA"}},
  "key": {"[1]": {"molecular_target": "mature form of SREBP1 (mSREBP1) (human (endogenous in NCI-H929))", "experiment": "co-IP; anti-SREBP1 or anti-SREBP2 antibodies, lysates of control and LPIN1-knockdown NCI-H929 cells; Western blot"}, "[2]": {"molecular_target": "mature form of SREBP2 (mSREBP2) (human (endogenous in NCI-H929))", "experiment": "co-IP; anti-SREBP1 or anti-SREBP2 antibodies, lysates of control and LPIN1-knockdown NCI-H929 cells; Western blot"}},
  "note": "These are yes or no findings as the source states them, for the method shown. In cells and extracts the contact can be indirect. Binding can be weak; no strength is given.",
  "data": [
    {"binder": "B1", "values": [
      {"measurement": "binding", "setting": "[1]", "result": "binds"},
      {"measurement": "binding", "setting": "[2]", "result": "binds"}
    ]}
  ]
}
